Laboratory results: PubChem BioAssay AID2685 (National Center for Advancing Translational Sciences (NCATS), 2010)
The list shows a part of the results. These are further read-outs of the screen, such as a control signal, another cell line or another target. No call is given for them. The list favours compounds with an active or inconclusive main result. Words in brackets tell the shape of the fitted curve; partial curves, single points and poor fits give uncertain potencies.

Experiment: qHTS Assay for Lipid Storage Modulators in Drosophila S3 Cells;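 on cell number change: cells counted by Cell Tracker Red CMTPX staining in the red channel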
Settings: BODIPY lipid droplet fluorescence, 18-24 h; for cell number change: measured here: cell count max response, cells fed with added oleic acid
Method in brief: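 Drosophila S3 cells got compounds at several concentrations plus oleic acid (400 uM solution). Laser-scanning cytometry with 488 nm excitation read lipid droplets at 500-530 nm and cells at 575-640 nm. Percent activity was relative to 20 uM Triacsin C.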

[1] = measured here: cell number channel AC50, cells fed with added oleic acid
[2] = measured here: lipid fluorescence (Fed channel) AC50, cells fed with added oleic acid

For CCOC(=O)c1c(-c2ccc(C)o2)csc1NC(=O)CSc1nnnn1-c1ccccc1, the cell number change was -47.9%, the AC50 [1] was 29.1 µM [falling, single point] and the AC50 [2] was 18.4 µM [falling, single point].
For CCN(CC)S(=O)(=O)c1ccc(Cl)c(C(=O)NCc2ccccc2Cl)c1, the cell number change was -12.1%.
For CN(C)S(=O)(=O)n1cc(/C=C(\NC(=O)c2ccccc2Cl)C(=O)NCCN2CCOCC2)c2ccccc21, the AC50 [2] was 4.11 µM [rising, partial curve].
With O=C1S/C(=C\c2ccccn2)C(=O)N1Cc1ccccc1F the cell number change was -8.89% and the AC50 [2] was 20.6 µM [rising, single point].
In the case of Cc1ccccc1NC(=O)CSc1n[nH]c(-c2ccco2)n1, the cell number change is reported as 19.5%.
In the case of CC1CCN(c2ccc3c(c2)S(=O)(=O)c2cccc(C(=O)NCc4cccc(F)c4)c2C3=O)CC1, the cell number change is reported as -40.1%, the AC50 [1] is reported as 25.9 µM [falling, single point] and the AC50 [2] is reported as 16.4 µM [falling, single point].
With COCCCNC(=O)/C(C#N)=C1\N=C(NC(=O)c2cccs2)c2ccccc21 the AC50 [2] was 0.184 µM [rising, full curve, poor fit].
For COc1ccccc1CN(C)C(=O)c1ccccc1SCC(=O)N1CCCC1, the cell number change was 24% and the AC50 [2] was 20.6 µM [rising, partial curve, poor fit].
In the case of O=S(=O)(NNc1ccc(F)cc1F)c1cccc(Cl)c1, the cell number change is reported as 0.451%.
With COc1cccc(NC(=O)C(Sc2nnc3ccccn23)c2ccccc2)c1 (centres undefined) the AC50 [1] was 0.231 µM [rising, full curve, poor fit] and the AC50 [2] was 2.06 µM [rising, partial curve].
For CN(N)C(=S)Nc1ccc(F)cc1, the cell number change was -16.9% and the AC50 [2] was 0.82 µM [falling, single point].
Work on O=C(c1ccccc1)N(Cc1cccs1)C1CCS(=O)(=O)C1 (centres undefined) yielded a cell number change of 11.5%.
In the case of COc1ccccc1NC(=O)CCC(=O)c1ccc(-c2ccccc2)cc1, the AC50 [1] is reported as 6.51 µM [rising, single point] and the AC50 [2] is reported as 6.51 µM [rising, partial curve].
For COc1ccccc1C(=O)NNC(=O)c1ccc(NC(=O)C(C)C)cc1, the AC50 [2] was 6.51 µM [falling, single point].
With Cc1ccc(OCCN2CCCCCC2)c(C)c1 the cell number change was -10.1% and the AC50 [2] was 18.4 µM [falling, single point].
Work on CCOC(=O)c1c(C)c(C(=O)N2CCN(C(=O)c3ccco3)CC2)c(C)n1C yielded a cell number change of -6.93%.
With CCC(=O)Nc1cccc(NC(=O)CN2CCN(c3ccccc3OC)CC2)c1 the cell number change was 4.85%.
With CCN(CC(=O)NCc1cccs1)C(=O)c1ccc(S(=O)(=O)Nc2cccc(C)c2C)cc1 the cell number change was -22.3% and the AC50 [2] was 35.5 µM [falling, single point].
